{"source": "PubChem BioAssay AID1259284, Sanger Institute | 2017", "screen": "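siRNA screen across the kinome seeking partners for BYL719, cetuximab or trametinib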 (primary screen)", "cells": "SW48 human colorectal cancer cells", "knock-down reagent": "siRNA pool against human genes", "treatment": "anchor drug BYL719 at 1 µM, cetuximab at 5 µg/ml or trametinib at 10 nM, or DMSO vehicle alone", "measurement": "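Cell viability relative to non-targeting pool wells, replicate mean, with robust z-scores and drug synergy scores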", "direction": "robust z-score, no drug: higher = more cells survive knock-down", "active means": "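a knock-down is essential if viability without drug gives a robust z-score under -3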", "meaning of the calls": "active = essential without drug; inactive = no change without drug", "note": "The deposit covers 794 reagents; shown is a part drawn at random. In the full data, 16 (2%) were called active. 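Calls concern knock-down without drug only; drug synergy was judged apart, with scores above 0.15 taken as synergy.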 Not all columns of the deposit are shown. Not given: the amount of reagent, the time to read-out."}
{"gene knocked down": "SNRK (GeneID 54861)", "PubChem SID": "SID152154333", "robust z-score, no drug": 0.401, "activity call": "inactive"}
{"gene knocked down": "MAPK10 (GeneID 5602)", "PubChem SID": "SID56478791", "robust z-score, no drug": 0.426, "activity call": "inactive"}
{"gene knocked down": "TAOK2 (GeneID 9344)", "PubChem SID": "SID57288958", "robust z-score, no drug": 0.426, "activity call": "inactive"}
{"gene knocked down": "LCK (GeneID 3932)", "PubChem SID": "SID152150546", "robust z-score, no drug": 0.426, "activity call": "inactive"}
{"gene knocked down": "CDK13 (GeneID 8621)", "PubChem SID": "SID152148828", "robust z-score, no drug": 0.426, "activity call": "inactive"}
{"gene knocked down": "PFKFB2 (GeneID 5208)", "PubChem SID": "SID135621246", "robust z-score, no drug": 0.426, "activity call": "inactive"}
{"gene knocked down": "MAPK3 (GeneID 5595)", "PubChem SID": "SID135620708", "robust z-score, no drug": 0.426, "activity call": "inactive"}
{"gene knocked down": "PTPN11 (GeneID 5781)", "PubChem SID": "SID134310183", "robust z-score, no drug": -0.31, "activity call": "inactive"}
{"gene knocked down": "PRKX (GeneID 5613)", "PubChem SID": "SID152149946", "robust z-score, no drug": 0.426, "activity call": "inactive"}
{"gene knocked down": "EPHB4 (GeneID 2050)", "PubChem SID": "SID152156322", "robust z-score, no drug": 0.426, "activity call": "inactive"}
{"gene knocked down": "CAMK1D (GeneID 57118)", "PubChem SID": "SID152153083", "robust z-score, no drug": -0.274, "activity call": "inactive"}
{"gene knocked down": "PDIK1L (GeneID 149420)", "PubChem SID": "SID152147170", "robust z-score, no drug": 0.426, "activity call": "inactive"}
{"gene knocked down": "PTK6 (GeneID 5753)", "PubChem SID": "SID152152810", "robust z-score, no drug": 0.426, "activity call": "inactive"}
{"gene knocked down": "TSSK6 (GeneID 83983)", "PubChem SID": "SID152147466", "robust z-score, no drug": -0.464, "activity call": "inactive"}
{"gene knocked down": "PNCK (GeneID 139728)", "PubChem SID": "SID152151558", "robust z-score, no drug": 0.426, "activity call": "inactive"}
{"gene knocked down": "MAPKAPK2 (GeneID 9261)", "PubChem SID": "SID56478668", "robust z-score, no drug": 0.426, "activity call": "inactive"}
{"gene knocked down": "TGFBR2 (GeneID 7048)", "PubChem SID": "SID152152630", "robust z-score, no drug": -0.467, "activity call": "inactive"}
{"gene knocked down": "HIPK4 (GeneID 147746)", "PubChem SID": "SID135620890", "robust z-score, no drug": 0.426, "activity call": "inactive"}
{"gene knocked down": "NEK9 (GeneID 91754)", "PubChem SID": "SID56478903", "robust z-score, no drug": 0.426, "activity call": "inactive"}

Continued; the last 4 above are carried over.
{"gene knocked down": "MAPKAPK2 (GeneID 9261)", "PubChem SID": "SID56478668", "robust z-score, no drug": 0.426, "activity call": "inactive"}
{"gene knocked down": "TGFBR2 (GeneID 7048)", "PubChem SID": "SID152152630", "robust z-score, no drug": -0.467, "activity call": "inactive"}
{"gene knocked down": "HIPK4 (GeneID 147746)", "PubChem SID": "SID135620890", "robust z-score, no drug": 0.426, "activity call": "inactive"}
{"gene knocked down": "NEK9 (GeneID 91754)", "PubChem SID": "SID56478903", "robust z-score, no drug": 0.426, "activity call": "inactive"}
{"gene knocked down": "HIPK1 (GeneID 204851)", "PubChem SID": "SID135620891", "robust z-score, no drug": 0.426, "activity call": "inactive"}
{"gene knocked down": "SKAP1 (GeneID 8631)", "PubChem SID": "SID152154182", "robust z-score, no drug": 0.426, "activity call": "inactive"}
{"gene knocked down": "PRKCG (GeneID 5582)", "PubChem SID": "SID56478828", "robust z-score, no drug": 0.426, "activity call": "inactive"}
{"gene knocked down": "CDADC1 (GeneID 81602)", "PubChem SID": "SID56479191", "robust z-score, no drug": -0.652, "activity call": "inactive"}
{"gene knocked down": "NEK1 (GeneID 4750)", "PubChem SID": "SID152155530", "robust z-score, no drug": 0.426, "activity call": "inactive"}
{"gene knocked down": "BRD4 (GeneID 23476)", "PubChem SID": "SID152154839", "robust z-score, no drug": 0.426, "activity call": "inactive"}
{"gene knocked down": "ZC3H11A (GeneID 9877)", "PubChem SID": "SID135624155", "robust z-score, no drug": 0.426, "activity call": "inactive"}
{"gene knocked down": "PAK1 (GeneID 5058)", "PubChem SID": "SID135620692", "robust z-score, no drug": -2.38, "activity call": "inactive"}
{"gene knocked down": "NME4 (GeneID 4833)", "PubChem SID": "SID56479075", "robust z-score, no drug": 0.426, "activity call": "inactive"}
{"gene knocked down": "KIT (GeneID 3815)", "PubChem SID": "SID152151885", "robust z-score, no drug": 0.426, "activity call": "inactive"}
{"gene knocked down": "FGFRL1 (GeneID 53834)", "PubChem SID": "SID135622448", "robust z-score, no drug": -0.229, "activity call": "inactive"}
{"gene knocked down": "CDK19 (GeneID 23097)", "PubChem SID": "SID56478856", "robust z-score, no drug": 0.426, "activity call": "inactive"}
{"gene knocked down": "CKMT1B (GeneID 1159)", "PubChem SID": "SID135621236", "robust z-score, no drug": 0.426, "activity call": "inactive"}
{"gene knocked down": "FLT4 (GeneID 2324)", "PubChem SID": "SID152148537", "robust z-score, no drug": 0.426, "activity call": "inactive"}
{"gene knocked down": "PRKACG (GeneID 5568)", "PubChem SID": "SID56478826", "robust z-score, no drug": -1.8, "activity call": "inactive"}
{"gene knocked down": "MKNK1 (GeneID 8569)", "PubChem SID": "SID135620901", "robust z-score, no drug": 0.426, "activity call": "inactive"}
{"gene knocked down": "IRAK3 (GeneID 11213)", "PubChem SID": "SID56478864", "robust z-score, no drug": -0.923, "activity call": "inactive"}
